Results from PMC9389594.
Substitutions are numbered along the chain they refer to. No constants are given. Whether binding was seen depends on the method and setting. In cells and extracts the contact can be indirect. For some assays here: Binding can be weak; no strength is given. Where a sequence is shown, tags or fusion partners need not be part of it.

Experiments:
[1] = molecular target: T1, 6xHis-tagged FKBP4-K354A mutant (UniProt Q02790); assay: co-IP; immunoprecipitation of 6xHis-tagged FKBP4 or FKBP4-K354A with anti-6xHis-tag antibody from transduced HCT116 cells treated with siFKBP4_3'UTR; Western blot
T1 sequence: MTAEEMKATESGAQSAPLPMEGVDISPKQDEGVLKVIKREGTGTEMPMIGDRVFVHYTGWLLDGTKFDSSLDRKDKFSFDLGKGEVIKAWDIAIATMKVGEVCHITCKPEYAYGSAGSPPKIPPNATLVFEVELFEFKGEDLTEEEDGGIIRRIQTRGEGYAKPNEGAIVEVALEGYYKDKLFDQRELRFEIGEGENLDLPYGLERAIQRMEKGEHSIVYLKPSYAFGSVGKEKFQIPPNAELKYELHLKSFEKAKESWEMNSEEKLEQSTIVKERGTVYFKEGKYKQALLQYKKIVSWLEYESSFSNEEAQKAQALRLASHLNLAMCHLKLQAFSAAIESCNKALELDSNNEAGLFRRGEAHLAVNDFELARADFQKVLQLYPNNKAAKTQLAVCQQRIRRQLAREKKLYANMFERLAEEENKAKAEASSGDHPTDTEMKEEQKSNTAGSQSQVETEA

6xHis-tagged FKBP4 = molecular target: T2, 6xHis-tagged FKBP4 (UniProt Q02790); assay: as above
T2 sequence: T1 sequence with A354K

binding [1]: no binding | binding (6xHis-tagged FKBP4): binds
Substance: HSP70 (human (endogenous in HCT116))
